Results are given in words; binding and its absence hold for the method and conditions named. Binding seen in cells or lysates may run through a third protein. Some results given as binding are weak or reduced against the parent protein; the word gives no strength.
Molecular target: T1, T-cell immunoglobulin and mucin domain containing 4 (Tim-4), endogenous in mouse peritoneal macrophages (mouse (endogenous in PEMs)) (UniProt Q6U7R4)
T1 sequence: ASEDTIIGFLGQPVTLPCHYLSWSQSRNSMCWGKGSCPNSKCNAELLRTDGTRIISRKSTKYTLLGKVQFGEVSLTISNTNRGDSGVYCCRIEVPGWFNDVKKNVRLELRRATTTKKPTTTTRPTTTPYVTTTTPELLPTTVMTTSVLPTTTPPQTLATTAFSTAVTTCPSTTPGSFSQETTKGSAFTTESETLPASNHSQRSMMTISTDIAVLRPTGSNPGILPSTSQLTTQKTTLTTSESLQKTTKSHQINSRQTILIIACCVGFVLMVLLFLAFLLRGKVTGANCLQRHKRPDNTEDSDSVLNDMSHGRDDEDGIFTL
Assay: co-IP; endogenous proteins in PEM lysate; IP with anti-Tim-4 (sc-390805) or IgG; immunoblot with anti-Tim-4 and anti-CK2β

By UniProt entry, the sequences of proteins in these tests, tags left out.
UniProt P67871: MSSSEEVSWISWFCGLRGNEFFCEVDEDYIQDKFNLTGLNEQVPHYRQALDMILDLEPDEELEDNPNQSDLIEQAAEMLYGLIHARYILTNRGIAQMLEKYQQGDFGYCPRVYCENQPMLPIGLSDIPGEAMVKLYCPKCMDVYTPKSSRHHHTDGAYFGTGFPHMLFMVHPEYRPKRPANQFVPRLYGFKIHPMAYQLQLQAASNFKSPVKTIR

Q: “casein kinase 2β (CK2β) regulatory subunit, endogenous in mouse peritoneal macrophages (from UniProt P67871 1-215)” was tested. Which binding did it give?
A: binds

Source: publication PMC12500436
